Measurements reported in PubChem BioAssay AID1259308 (NCATS, 2017).
The deposit covers about 59,000 reagents; below is an unselected part. In the full data, about 1,510 (2.6%) were called active. 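Calls use total luciferase alone and ignore viability, so some active siRNAs may act by altering cell number.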 The numbers tell different reagents against one gene apart. Further read-outs or replicates are left out here. Reagent sequences are not shown.

Screen: 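Candidate targets for better recombinant protein yield in mammalian cells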 (primary screen)
System: human HEK293 embryonic kidney cells stably expressing firefly luciferase (HEK-CMV-Luc2-Hygro)
Reagent: single siRNA against human genes, 0.8 pmol siRNA per well
Timing: 72 h
Measurement: 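Luciferase light (ONE-Glo) measured on one replicate plate set and viability (CellTiter-Glo) on the other, scaled to a negative control siRNA, with robust z-scores and luciferase per cell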
Reading the numbers: total luciferase, z-score and total luciferase, % of control: higher = more reporter protein produced
Hit rule: 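An siRNA counts as active if its total luciferase robust z-score exceeds 3; genes with two or more such siRNAs out of three were retested with fresh siRNAs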
Meaning of the calls: active = raised luciferase; inactive = no rise

With APOC3 #1, how do the results read?
total luciferase, z-score: -0.154; total luciferase, % of control: 78.8; Outcome: inactive

Which result is listed for APOC3 #2?
total luciferase, z-score: -0.0691; total luciferase, % of control: 80.5; Outcome: inactive

With APOC3 #3, how do the results read?
total luciferase, z-score: 0.162; total luciferase, % of control: 85.1; Outcome: inactive

For ATP6V0A4 #1, what does the deposit list?
total luciferase, z-score: -0.792; total luciferase, % of control: 66.1; Outcome: inactive

What is on record for ATP6V0A4 #2?
total luciferase, z-score: 0.102; total luciferase, % of control: 83.9; Outcome: inactive

What did the screen give for ATP6V0A4 #3?
total luciferase, z-score: 0.474; total luciferase, % of control: 91.3; Outcome: inactive

What is on record for HTR1A #1?
total luciferase, z-score: 0.126; total luciferase, % of control: 84.4; Outcome: inactive

What did the screen give for HTR1A #2?
total luciferase, z-score: 1.25; total luciferase, % of control: 107; Outcome: inactive

With HTR1A #3, what does the deposit list?
total luciferase, z-score: -0.537; total luciferase, % of control: 71.2; Outcome: inactive

What did the screen give for B4GAT1 #1?
total luciferase, z-score: -0.66; total luciferase, % of control: 68.8; Outcome: inactive

With B4GAT1 #2, what does the deposit list?
total luciferase, z-score: -1.39; total luciferase, % of control: 54.3; Outcome: inactive

What is on record for B4GAT1 #3?
total luciferase, z-score: 0.652; total luciferase, % of control: 94.9; Outcome: inactive

For FNBP1L #1, what does the deposit list?
total luciferase, z-score: -0.215; total luciferase, % of control: 77.6; Outcome: inactive

What is on record for FNBP1L #2?
total luciferase, z-score: 0.656; total luciferase, % of control: 94.9; Outcome: inactive

With FNBP1L #3, what was measured?
total luciferase, z-score: -0.892; total luciferase, % of control: 64.1; Outcome: inactive

Quoted from the entries so far (4 entries):
ATP6V0A4 #3 → total luciferase, z-score: 0.474; total luciferase, % of control: 91.3; Outcome: inactive
HTR1A #1 → total luciferase, z-score: 0.126; total luciferase, % of control: 84.4; Outcome: inactive
HTR1A #2 → total luciferase, z-score: 1.25; total luciferase, % of control: 107; Outcome: inactive
HTR1A #3 → total luciferase, z-score: -0.537; total luciferase, % of control: 71.2; Outcome: inactive

Additional reagents:
What did the screen give for SEZ6L2 #1?
total luciferase, z-score: -0.73; total luciferase, % of control: 67.4; Outcome: inactive

Which result is listed for SEZ6L2 #2?
total luciferase, z-score: 0.154; total luciferase, % of control: 84.9; Outcome: inactive

For SEZ6L2 #3, how do the results read?
total luciferase, z-score: -0.255; total luciferase, % of control: 76.8; Outcome: inactive

How did the screen score GABPA #1?
total luciferase, z-score: -0.685; total luciferase, % of control: 68.3; Outcome: inactive

For GABPA #2, what was measured?
total luciferase, z-score: -0.522; total luciferase, % of control: 71.5; Outcome: inactive

How did the screen score GABPA #3?
total luciferase, z-score: 0.924; total luciferase, % of control: 100; Outcome: inactive

For LRRC15 #1, how do the results read?
total luciferase, z-score: 3.53; total luciferase, % of control: 152; Outcome: active

For LRRC15 #2, how do the results read?
total luciferase, z-score: -2.6; total luciferase, % of control: 30.1; Outcome: inactive

For LRRC15 #3, what does the deposit list?
total luciferase, z-score: 2.1; total luciferase, % of control: 124; Outcome: inactive

What is on record for SRPRA #1?
total luciferase, z-score: -0.958; total luciferase, % of control: 62.8; Outcome: inactive

Which result is listed for SRPRA #2?
total luciferase, z-score: 1.58; total luciferase, % of control: 113; Outcome: inactive

With SRPRA #3, what does the deposit list?
total luciferase, z-score: -0.105; total luciferase, % of control: 79.8; Outcome: inactive

What is on record for C5orf47 #1?
total luciferase, z-score: -0.527; total luciferase, % of control: 71.4; Outcome: inactive

Which result is listed for C5orf47 #2?
total luciferase, z-score: 0.496; total luciferase, % of control: 91.7; Outcome: inactive

For C5orf47 #3, how do the results read?
total luciferase, z-score: 1.38; total luciferase, % of control: 109; Outcome: inactive

For PSMA4 #1, what does the deposit list?
total luciferase, z-score: -0.862; total luciferase, % of control: 64.7; Outcome: inactive

For PSMA4 #2, how do the results read?
total luciferase, z-score: 0.533; total luciferase, % of control: 92.5; Outcome: inactive

What did the screen give for PSMA4 #3?
total luciferase, z-score: -0.364; total luciferase, % of control: 74.6; Outcome: inactive
